Reference: publication doi:10.1101/647073
Results are given in words; binding and its absence hold for the method and conditions named. Binding seen in cells or lysates may run through a third protein. Some binding calls cover weakened binding; strength is not graded here. Sequences can lack the tags named with a protein.

T1: GFP-Nol9 (full length human Nol9, residues 1-702) (Homo sapiens) (UniProt Q5SY16)
T1 sequence: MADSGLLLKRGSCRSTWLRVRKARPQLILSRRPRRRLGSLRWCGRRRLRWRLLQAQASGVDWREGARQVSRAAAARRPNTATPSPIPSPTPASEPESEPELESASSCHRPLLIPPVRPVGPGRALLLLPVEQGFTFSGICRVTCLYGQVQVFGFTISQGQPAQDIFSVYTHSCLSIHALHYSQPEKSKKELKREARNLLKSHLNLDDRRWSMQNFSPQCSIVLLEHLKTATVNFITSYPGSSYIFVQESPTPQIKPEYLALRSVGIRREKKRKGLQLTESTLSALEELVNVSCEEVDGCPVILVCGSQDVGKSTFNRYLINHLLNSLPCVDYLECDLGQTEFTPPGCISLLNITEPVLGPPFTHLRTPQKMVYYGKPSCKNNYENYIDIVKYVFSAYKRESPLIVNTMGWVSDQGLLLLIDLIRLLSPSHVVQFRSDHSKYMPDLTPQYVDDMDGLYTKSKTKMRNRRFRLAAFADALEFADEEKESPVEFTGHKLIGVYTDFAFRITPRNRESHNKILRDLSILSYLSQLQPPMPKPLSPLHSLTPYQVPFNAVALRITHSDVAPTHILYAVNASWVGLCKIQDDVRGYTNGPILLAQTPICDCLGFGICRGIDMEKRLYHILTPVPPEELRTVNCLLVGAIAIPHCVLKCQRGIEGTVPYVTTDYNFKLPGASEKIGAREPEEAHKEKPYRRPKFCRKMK

T2: GFP-Las1L (full length human Las1L, residues 1-734) (Homo sapiens) (UniProt Q9Y4W2)
T2 sequence: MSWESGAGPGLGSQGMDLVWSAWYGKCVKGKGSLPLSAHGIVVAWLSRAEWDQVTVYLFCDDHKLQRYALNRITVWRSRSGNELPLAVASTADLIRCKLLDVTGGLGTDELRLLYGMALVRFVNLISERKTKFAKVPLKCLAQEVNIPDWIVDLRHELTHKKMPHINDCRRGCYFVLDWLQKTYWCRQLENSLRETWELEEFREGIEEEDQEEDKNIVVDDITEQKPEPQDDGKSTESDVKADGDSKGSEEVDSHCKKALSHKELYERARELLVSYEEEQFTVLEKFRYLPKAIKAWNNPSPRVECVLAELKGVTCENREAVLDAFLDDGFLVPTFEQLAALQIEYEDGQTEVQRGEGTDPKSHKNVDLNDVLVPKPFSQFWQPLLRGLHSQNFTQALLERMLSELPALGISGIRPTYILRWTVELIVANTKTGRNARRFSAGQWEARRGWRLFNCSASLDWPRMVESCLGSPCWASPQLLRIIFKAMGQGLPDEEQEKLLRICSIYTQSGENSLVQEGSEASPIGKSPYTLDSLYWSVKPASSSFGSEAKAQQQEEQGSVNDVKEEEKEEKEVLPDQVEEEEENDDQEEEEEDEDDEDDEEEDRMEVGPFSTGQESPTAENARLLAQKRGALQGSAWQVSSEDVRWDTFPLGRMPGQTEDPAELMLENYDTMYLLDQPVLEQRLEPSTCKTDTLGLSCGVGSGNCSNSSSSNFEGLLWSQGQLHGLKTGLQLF

B1: GST-Nol9 (full length human Nol9) (protein, UniProt Q5SY16 1-702)
chain: T1 sequence
B2: Strep-Las1L (full length human Las1L, residues 1-734) (protein, UniProt Q9Y4W2 1-734)
chain: T2 sequence

Legend:
[1] = target: T1, GFP-Nol9 (full length human Nol9, residues 1-702) (Homo sapiens); assay: co-IP
[2] = target: T2, GFP-Las1L (full length human Las1L, residues 1-734) (Homo sapiens); assay: co-IP

binding [1] | binding [2] | Binder
binds |  | B1
 | binds | B2
